The target of the test is human antithrombin β complexed with heparin (human ATβH) (human) (UniProt P01008). The test is described as follows: panning and screening of human antibody libraries against human ATβ in complex with heparin.

By UniProt entry, the sequences of proteins in these tests, tags left out. Residues count along the entry.
UniProt P01008, residues 33-464: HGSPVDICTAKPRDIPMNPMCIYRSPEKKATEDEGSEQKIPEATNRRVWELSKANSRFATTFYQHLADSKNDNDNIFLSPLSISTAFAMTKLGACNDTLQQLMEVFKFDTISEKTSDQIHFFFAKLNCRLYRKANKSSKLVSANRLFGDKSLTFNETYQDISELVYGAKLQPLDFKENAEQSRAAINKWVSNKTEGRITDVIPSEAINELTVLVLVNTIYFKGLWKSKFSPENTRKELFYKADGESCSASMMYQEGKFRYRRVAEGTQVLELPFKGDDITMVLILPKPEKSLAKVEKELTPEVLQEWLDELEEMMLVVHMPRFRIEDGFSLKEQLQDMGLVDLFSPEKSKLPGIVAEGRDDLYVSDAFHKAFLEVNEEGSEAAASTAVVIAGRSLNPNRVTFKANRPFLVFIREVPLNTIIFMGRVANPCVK

The text below walks through data of patent US20140271661A1.

Results are given in words; binding and its absence hold for the method and conditions named. Some results given as binding are weak or reduced against the parent protein; the word gives no strength.

B1: TPP2803 IgG2, Germlined and converted to IgG2 (antibody, V domains shown)
VH: EVQLLESGGGLVQPGGSLRLSCAASGFTFSSYRMSWVRQAPGKGLEWVSRIYSSGGRTRYADSVKGRFTISRDNSKNTLYLQMNSLRAEDTAVYYCAREKASDLSGSFSEALDYWGQGTLVTVSS
VL: SSELTQDPAVSVALGQTVRITCQGDSLRSYYASWYQQKPGQAPVLVIYGKNNRPSGIPDRFSGSSSGNTASLTITGAQAEDEADYYCNSRDSSGNHLVFGGGTKLTVLG
With B1, the binding entry is “binds”.
